According to publication PMC6944706:
These are yes or no findings as the source states them, for the method shown. Binding seen in cells or lysates may run through a third protein. Some binding calls cover weakened binding; strength is not graded here. For some assays here: Sequences can lack the tags named with a protein. One block for each binder: values may come before it.

The chains behind the UniProt entries cited, without tags or fusion partners.
UniProt P54646: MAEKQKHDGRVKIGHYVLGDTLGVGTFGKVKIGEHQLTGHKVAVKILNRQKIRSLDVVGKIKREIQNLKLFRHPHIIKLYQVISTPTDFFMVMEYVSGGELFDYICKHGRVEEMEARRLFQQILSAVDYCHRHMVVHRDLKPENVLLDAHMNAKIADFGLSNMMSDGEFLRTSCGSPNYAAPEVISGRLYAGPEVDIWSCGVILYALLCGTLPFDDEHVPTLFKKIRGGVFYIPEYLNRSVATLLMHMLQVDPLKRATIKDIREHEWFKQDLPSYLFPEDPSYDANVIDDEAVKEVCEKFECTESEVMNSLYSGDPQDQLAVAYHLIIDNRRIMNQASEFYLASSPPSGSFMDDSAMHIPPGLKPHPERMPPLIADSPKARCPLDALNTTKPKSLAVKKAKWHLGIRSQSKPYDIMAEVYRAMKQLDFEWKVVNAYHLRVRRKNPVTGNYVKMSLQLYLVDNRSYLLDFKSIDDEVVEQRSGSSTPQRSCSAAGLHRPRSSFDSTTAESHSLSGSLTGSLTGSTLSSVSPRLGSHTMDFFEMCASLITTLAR

Assays:
[1] = molecular target: AMP-activated protein kinase catalytic subunit alpha-2 (AMPKα2), endogenous in MDA-MB-231 cells (human (endogenous in MDA-MB-231)) (UniProt P54646); test: co-IP; endogenous proteins; MDA-MB-231 cells lysed in RIPA buffer with PMSF; lysate incubated with IgG, anti-UBE2O or anti-AMPKα2 antibodies at 4 °C overnight, beads 4 h, washed with TBS with PMSF; western blot
MYC-tagged AMPKα2 = MYC-tagged AMPKα2 (UniProt P54646); test: co-IP; MCF-7 cells transfected with Flag-tagged UBE2O and MYC-tagged AMPKα2 plasmids, alone or together, lysed after 48 h; immunoprecipitated with MYC-tag antibodies; western blot with anti-UBE2O or anti-AMPKα2 antibodies

- binding [1]: binds
B1: Ubiquitin-conjugating enzyme E2O (UBE2O), endogenous in MDA-MB-231 cells (enzyme, UniProt Q9C0C9 1-1292)
chain: MADPAAPTPAAPAPAQAPAPAPEAVPAPAAAPVPAPAPASDSASGPSSDSGPEAGSQRLLFSHDLVSGRYRGSVHFGLVRLIHGEDSDSEGEEEGRGSSGCSEAGGAGHEEGRASPLRRGYVRVQWYPEGVKQHVKETKLKLEDRSVVPRDVVRHMRSTDSQCGTVIDVNIDCAVKLIGTNCIIYPVNSKDLQHIWPFMYGDYIAYDCWLGKVYDLKNQIILKLSNGARCSMNTEDGAKLYDVCPHVSDSGLFFDDSYGFYPGQVLIGPAKIFSSVQWLSGVKPVLSTKSKFRVVVEEVQVVELKVTWITKSFCPGGTDSVSPPPSVITQENLGRVKRLGCFDHAQRQLGERCLYVFPAKVEPAKIAWECPEKNCAQGEGSMAKKVKRLLKKQVVRIMSCSPDTQCSRDHSMEDPDKKGESKTKSEAESASPEETPDGSASPVEMQDEGAEEPHEAGEQLPPFLLKEGRDDRLHSAEQDADDEAADDTDDTSSVTSSASSTTSSQSGSGTSRKKSIPLSIKNLKRKHKRKKNKITRDFKPGDRVAVEVVTTMTSADVMWQDGSVECNIRSNDLFPVHHLDNNEFCPGDFVVDKRVQSCPDPAVYGVVQSGDHIGRTCMVKWFKLRPSGDDVELIGEEEDVSVYDIADHPDFRFRTTDIVIRIGNTEDGAPHKEDEPSVGQVARVDVSSKVEVVWADNSKTIILPQHLYNIESEIEESDYDSVEGSTSGASSDEWEDDSDSWETDNGLVEDEHPKIEEPPIPPLEQPVAPEDKGVVISEEAATAAVQGAVAMAAPMAGLMEKAGKDGPPKSFRELKEAIKILESLKNMTVEQLLTGSPTSPTVEPEKPTREKKFLDDIKKLQENLKKTLDNVAIVEEEKMEAVPDVERKEDKPEGQSPVKAEWPSETPVLCQQCGGKPGVTFTSAKGEVFSVLEFAPSNHSFKKIEFQPPEAKKFFSTVRKEMALLATSLPEGIMVKTFEDRMDLFSALIKGPTRTPYEDGLYLFDIQLPNIYPAVPPHFCYLSQCSGRLNPNLYDNGKVCVSLLGTWIGKGTERWTSKSSLLQVLISIQGLILVNEPYYNEAGFDSDRGLQEGYENSRCYNEMALIRVVQSMTQLVRRPPEVFEQEIRQHFSTGGWRLVNRIESWLETHALLEKAQALPNGVPKASSSPEPPAVAELSDSGQQEPEDGGPAPGEASQGSDSEGGAQGLASASRDHTDQTSETAPDASVPPSVKPKKRRKSYRSFLPEKSGYPDIGFPLFPLSKGFIKSIRGVLTQFRAALLEAGMPECTEDK

- binding (MYC-tagged AMPKα2): binds
B2: Flag-tagged UBE2O (enzyme, UniProt Q9C0C9 1-1292)
chain: B1 chain
